According to publication PMC10223877 (Pharmaceutics, 2023):

Test: peptide made by a vendor
Settings: whole synthesis

Row | Substance | final HPLC purity | final HPLC purity (pharmaceutics-15-01391-t001 r5) | final HPLC purity (run 1)
1 | PEPTIDE1{V.R.L.I.V.A.V.R.I.W.R.R.[am]}$$$$V2.0 | >95% purity | – | –
2 | T(GlcNAc)VRLIVAVRIWRR-NH2 | – | >92.0% | ≥95% purity
3 | PEPTIDE1{[PEG6].V.R.L.I.V.A.V.R.I.W.R.R.[am]}$$$$V2.0 | ≥95% purity | – | –

HELM strings list residues between dots; [ac] is acetyl, [am] amide, other brackets name non-standard units.
